Reference: PMC4413608
Results are given in words; binding and its absence hold for the method and conditions named. Binding seen in cells or lysates may run through a third protein. Some results given as binding are weak or reduced against the parent protein; the word gives no strength.

Amino acid sequences for entries named in this document (tags omitted). Residues count along the entry.
UniProt P30101, residues 25-505: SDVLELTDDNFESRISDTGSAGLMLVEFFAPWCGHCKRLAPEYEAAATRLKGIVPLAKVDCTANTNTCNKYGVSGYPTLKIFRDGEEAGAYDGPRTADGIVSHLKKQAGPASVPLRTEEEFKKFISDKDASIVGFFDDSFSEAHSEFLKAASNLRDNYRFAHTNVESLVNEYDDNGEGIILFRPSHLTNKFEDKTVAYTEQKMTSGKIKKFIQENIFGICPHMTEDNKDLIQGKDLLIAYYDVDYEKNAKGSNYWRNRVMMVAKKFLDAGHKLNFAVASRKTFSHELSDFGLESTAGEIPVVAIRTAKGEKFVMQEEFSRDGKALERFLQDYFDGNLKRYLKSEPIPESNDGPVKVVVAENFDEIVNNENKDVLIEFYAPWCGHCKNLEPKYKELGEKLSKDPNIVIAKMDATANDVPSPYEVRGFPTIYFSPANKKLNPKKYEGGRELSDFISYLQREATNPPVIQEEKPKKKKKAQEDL
UniProt P40763: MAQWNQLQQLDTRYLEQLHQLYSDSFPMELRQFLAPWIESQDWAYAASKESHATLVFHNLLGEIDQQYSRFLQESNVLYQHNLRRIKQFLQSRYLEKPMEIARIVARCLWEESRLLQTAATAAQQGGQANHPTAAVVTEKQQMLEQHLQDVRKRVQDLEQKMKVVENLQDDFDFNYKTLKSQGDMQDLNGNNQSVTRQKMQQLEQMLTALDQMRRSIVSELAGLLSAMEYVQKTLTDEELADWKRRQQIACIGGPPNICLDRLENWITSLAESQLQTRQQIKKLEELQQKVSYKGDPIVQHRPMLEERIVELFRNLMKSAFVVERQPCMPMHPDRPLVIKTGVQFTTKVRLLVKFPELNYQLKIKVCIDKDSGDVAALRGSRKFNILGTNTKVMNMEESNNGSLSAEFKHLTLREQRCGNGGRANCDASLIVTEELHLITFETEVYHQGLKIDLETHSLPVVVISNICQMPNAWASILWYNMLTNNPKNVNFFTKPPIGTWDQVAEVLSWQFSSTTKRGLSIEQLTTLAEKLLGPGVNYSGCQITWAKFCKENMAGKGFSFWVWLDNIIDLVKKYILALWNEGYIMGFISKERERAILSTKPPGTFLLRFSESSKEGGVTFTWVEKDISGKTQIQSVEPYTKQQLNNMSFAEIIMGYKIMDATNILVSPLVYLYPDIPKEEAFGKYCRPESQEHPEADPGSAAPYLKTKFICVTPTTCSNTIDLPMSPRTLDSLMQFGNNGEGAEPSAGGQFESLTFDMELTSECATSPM

Assays:
[1] = molecular target: ERp57 (human (endogenous in HEp-2)) (UniProt P30101); test: proximity ligation; in situ PLA (Duolink) on antigen-retrieved human laryngeal cancer tissue sections (n = 106); anti-ERp57 and anti-STAT3 antibodies; confocal microscopy
[2] = molecular target: ERp57 (human (endogenous in HEp-2)) (UniProt P30101); test: co-IP; NP-40 lysates of HEp-2 and RR-HEp-2 cells, untreated or 6 Gy radiation for 12 h; precipitated with anti-ERp57 or anti-STAT3 antibody (control IgG), protein G-Sepharose, immunoblot for the other protein
[3] = molecular target: ERp57 (human (endogenous in HEp-2)) (UniProt P30101); test: proximity ligation; in situ PLA (Duolink) on paraformaldehyde-fixed, permeabilised HEp-2 and RR-HEp-2 cells, untreated or 6 Gy radiation for 12 h; anti-ERp57 and anti-STAT3 antibodies; confocal microscopy, dots per cell counted with CellProfiler

Measured: binding

Signal transducer and activator of transcription 3 (STAT3) (from UniProt P40763 1-770)
binds: all assays above
